PubChem BioAssay AID1259260 | Sanger Institute | 2017
Here is one part, drawn at random, of 794 reagents. 13 of them (1.6%) were called active. 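Calls reflect only knock-down without drug; synergy above 0.15 was grouped apart and does not change the call.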 Viability is capped at 1. Not all columns of the deposit are shown. Not stated in the record: the amount of reagent, the time to read-out.

Assay: 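Kinome knock-down with three anchor drugs to find synergy partners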 (primary screen)
System: human NCI-H716 colorectal cancer cells
Knock-down reagent: siRNA pool against human genes
Challenge: anchor drugs BYL719 (alpelisib) 1 µM, cetuximab 5 µg/ml or trametinib 10 nM, each at a dose chosen to harm viability only mildly; DMSO vehicle for the knock-down-alone arm
Detection: 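Replicate-averaged viability relative to a non-targeting pool, a robust z-score for knock-down alone, and a synergy score per anchor drug versus each agent alone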
Direction: viability robust z-score, siRNA alone: higher = more surviving cells; below -3 called essential; viability vs control, no drug: higher = more surviving cells
Units: viability vs control, no drug in fraction of control
Hit rule: 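a knock-down counts as essential if its no-drug robust z-score is lower than -3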
Calls: active = essential (knock-down alone lowers viability); inactive = no essential effect

{"target gene": "SBK1", "PubChem SID": "SID152154198", "viability robust z-score, siRNA alone": 0.602, "viability vs control, no drug": 1, "call": "inactive"}
{"target gene": "STK32A", "PubChem SID": "SID152151517", "viability robust z-score, siRNA alone": 0.055, "viability vs control, no drug": 0.943, "call": "inactive"}
{"target gene": "DNMT3A", "PubChem SID": "SID251761412", "viability robust z-score, siRNA alone": -0.471, "viability vs control, no drug": 0.888, "call": "inactive"}
{"target gene": "PIK3CD", "PubChem SID": "SID135621250", "viability robust z-score, siRNA alone": 0.602, "viability vs control, no drug": 1, "call": "inactive"}
{"target gene": "RPS6KL1", "PubChem SID": "SID152155635", "viability robust z-score, siRNA alone": 0.602, "viability vs control, no drug": 1, "call": "inactive"}
{"target gene": "PRKCG", "PubChem SID": "SID56478828", "viability robust z-score, siRNA alone": 0.602, "viability vs control, no drug": 1, "call": "inactive"}
{"target gene": "DIS3", "PubChem SID": "SID134319450", "viability robust z-score, siRNA alone": 0.16, "viability vs control, no drug": 0.954, "call": "inactive"}
{"target gene": "FLT1", "PubChem SID": "SID152149290", "viability robust z-score, siRNA alone": 0.602, "viability vs control, no drug": 1, "call": "inactive"}
{"target gene": "ACVRL1", "PubChem SID": "SID152155046", "viability robust z-score, siRNA alone": 0.602, "viability vs control, no drug": 1, "call": "inactive"}
{"target gene": "POLR2B", "PubChem SID": "SID134315545", "viability robust z-score, siRNA alone": -1.8, "viability vs control, no drug": 0.751, "call": "inactive"}
{"target gene": "IDH2", "PubChem SID": "SID134310230", "viability robust z-score, siRNA alone": 0.602, "viability vs control, no drug": 1, "call": "inactive"}
{"target gene": "TNIK", "PubChem SID": "SID152153870", "viability robust z-score, siRNA alone": -1.77, "viability vs control, no drug": 0.754, "call": "inactive"}
{"target gene": "ALPK3", "PubChem SID": "SID152152513", "viability robust z-score, siRNA alone": 0.602, "viability vs control, no drug": 1, "call": "inactive"}
{"target gene": "MAP3K11", "PubChem SID": "SID152156459", "viability robust z-score, siRNA alone": 0.602, "viability vs control, no drug": 1, "call": "inactive"}
{"target gene": "PRKCA", "PubChem SID": "SID56478672", "viability robust z-score, siRNA alone": 0.38, "viability vs control, no drug": 0.977, "call": "inactive"}
{"target gene": "PRKG1", "PubChem SID": "SID152152064", "viability robust z-score, siRNA alone": 0.602, "viability vs control, no drug": 1, "call": "inactive"}
{"target gene": "MAK", "PubChem SID": "SID56478884", "viability robust z-score, siRNA alone": 0.602, "viability vs control, no drug": 1, "call": "inactive"}
{"target gene": "RPS6KA2", "PubChem SID": "SID135620862", "viability robust z-score, siRNA alone": -2.56, "viability vs control, no drug": 0.672, "call": "inactive"}
{"target gene": "CSNK1A1", "PubChem SID": "SID152148946", "viability robust z-score, siRNA alone": -0.143, "viability vs control, no drug": 0.923, "call": "inactive"}
{"target gene": "CDK19", "PubChem SID": "SID56478856", "viability robust z-score, siRNA alone": 0.602, "viability vs control, no drug": 1, "call": "inactive"}
{"target gene": "INSR", "PubChem SID": "SID152149459", "viability robust z-score, siRNA alone": -1.98, "viability vs control, no drug": 0.732, "call": "inactive"}
{"target gene": "AXIN2", "PubChem SID": "SID135621652", "viability robust z-score, siRNA alone": 0.602, "viability vs control, no drug": 1, "call": "inactive"}
{"target gene": "PRKD2", "PubChem SID": "SID135620789", "viability robust z-score, siRNA alone": 0.602, "viability vs control, no drug": 1, "call": "inactive"}
{"target gene": "PAK4", "PubChem SID": "SID152147637", "viability robust z-score, siRNA alone": -0.736, "viability vs control, no drug": 0.861, "call": "inactive"}
{"target gene": "EPHA4", "PubChem SID": "SID152148822", "viability robust z-score, siRNA alone": -0.695, "viability vs control, no drug": 0.865, "call": "inactive"}
{"target gene": "STRADA", "PubChem SID": "SID152149670", "viability robust z-score, siRNA alone": 0.602, "viability vs control, no drug": 1, "call": "inactive"}
{"target gene": "FYN", "PubChem SID": "SID135620621", "viability robust z-score, siRNA alone": 0.602, "viability vs control, no drug": 1, "call": "inactive"}
{"target gene": "MVK", "PubChem SID": "SID56479115", "viability robust z-score, siRNA alone": 0.602, "viability vs control, no drug": 1, "call": "inactive"}

A few values from above:
Value of MVK [SID56479115] in “call”: inactive
Result for DNMT3A [SID251761412] under “call”: inactive
Under “viability robust z-score, siRNA alone”, FYN [SID135620621] reads 0.602
EPHA4 [SID152148822], viability robust z-score, siRNA alone: -0.695
